Data as given in PubChem BioAssay AID188 (DTP/NCI, 2004).
Values are animals surviving of animals treated; these mice carried no tumour. Counts of survivors are from the toxicity check (mostly the fifth day) where no day follows; animals may have died later. Schedules are NCI's codes, read here as Q, the interval in days (D) or hours (H), X, the number of doses. Some entries were tested several times; their values stand side by side, smallest first.

System: CD2F1 mice, nontumored, toxicity/survival
Assay: NCI In Vivo Anticancer Drug Screen. Data for tumor model Nontumored Animals (Toxicity Test) in CD2F1 (CDF1) mice
Settings: vehicle: saline

[N-]=[N+]=CC(=O)CCC(N)C(=O)O (configuration not stated)
survivor count (dose: 0.03 mg/kg/injection, schedule: Q01DX009 (ip)): 8 of 8
survivor count (dose: 0.05 mg/kg/injection, schedule: Q01DX009 (ip)): 10 of 10, 4 of 4, 8 of 8
survivor count (dose: 0.05 mg/kg/injection, schedule: Q01DX009 (oral)): 8 of 8
survivor count (dose: 0.05 mg/kg/injection, schedule: Q01DX009 (sc)): 8 of 8
survivor count (dose: 0.06 mg/kg/injection, schedule: Q01DX009 (ip)): 4 of 4
survivor count (dose: 0.1 mg/kg/injection, schedule: Q01DX009 (ip)): 10 of 10, 4 of 4, 8 of 8
survivor count (dose: 0.1 mg/kg/injection, schedule: Q01DX009 (oral)): 8 of 8
survivor count (dose: 0.1 mg/kg/injection, schedule: Q01DX009 (sc)): 8 of 8
survivor count (dose: 0.13 mg/kg/injection, schedule: Q01DX009 (ip)): 4 of 4
survivor count (dose: 0.2 mg/kg/injection, schedule: Q01DX009 (ip)): 10 of 10, 4 of 4, 8 of 8
survivor count (dose: 0.2 mg/kg/injection, schedule: Q01DX009 (oral)): 8 of 8
survivor count (dose: 0.2 mg/kg/injection, schedule: Q01DX009 (sc)): 8 of 8
survivor count (dose: 0.25 mg/kg/injection, schedule: Q01DX009 (ip)): 4 of 4
survivor count (dose: 0.4 mg/kg/injection, schedule: Q01DX009 (ip)): 10 of 10, 4 of 4, 8 of 8
survivor count (dose: 0.4 mg/kg/injection, schedule: Q01DX009 (oral)): 8 of 8
survivor count (dose: 0.4 mg/kg/injection, schedule: Q01DX009 (sc)): 8 of 8
survivor count (dose: 0.4 mg/kg/injection, schedule: Q03HX024 (ip)): 8 of 8
survivor count (dose: 0.5 mg/kg/injection, schedule: Q01DX009 (ip)): 4 of 4
survivor count (dose: 0.63 mg/kg/injection, schedule: Q04DX003 (ip)): 8 of 8
survivor count (dose: 0.8 mg/kg/injection, schedule: Q01DX009 (oral)): 8 of 8
survivor count (dose: 0.8 mg/kg/injection, schedule: Q01DX009 (sc)): 8 of 8
survivor count (dose: 0.8 mg/kg/injection, schedule: Q03HX016 (ip)): 8 of 8
survivor count (dose: 0.8 mg/kg/injection, schedule: Q03HX024 (ip)): 8 of 8
survivor count (dose: 1.25 mg/kg/injection, schedule: Q04DX003 (ip)): 8 of 8
survivor count (dose: 1.6 mg/kg/injection, schedule: Q03HX008 (ip)): 8 of 8
survivor count (dose: 1.6 mg/kg/injection, schedule: Q03HX016 (ip)): 8 of 8
survivor count (dose: 1.6 mg/kg/injection, schedule: Q03HX024 (ip)): 7 of 8
survivor count (dose: 2.5 mg/kg/injection, schedule: Q04DX003 (ip)): 8 of 8
survivor count (dose: 3.1 mg/kg/injection, schedule: Q03HX008 (ip)): 7 of 8
survivor count (dose: 3.1 mg/kg/injection, schedule: Q03HX016 (ip)): 7 of 8
survivor count (dose: 3.1 mg/kg/injection, schedule: Q03HX024 (ip)): 8 of 8
survivor count (dose: 3.1 mg/kg/injection, schedule: Q04DX003 (ip)): 8 of 8
survivor count (dose: 5.0 mg/kg/injection, schedule: Q04DX003 (ip)): 8 of 8
survivor count (dose: 6.2 mg/kg/injection, schedule: Q03HX024 (ip)): 7 of 8
survivor count (dose: 6.25 mg/kg/injection, schedule: Q03HX008 (ip)): 7 of 8
survivor count (dose: 6.25 mg/kg/injection, schedule: Q03HX016 (ip)): 4 of 8
survivor count (dose: 6.25 mg/kg/injection, schedule: Q04DX003 (ip)): 8 of 8
survivor count (dose: 6.25 mg/kg/injection, schedule: Q08DX002 (ip)): 8 of 8
survivor count (dose: 10.0 mg/kg/injection, schedule: Q04DX003 (ip)): 8 of 8
survivor count (dose: 12.5 mg/kg/injection, schedule: Q01DX001 (ip)): 8 of 8
survivor count (dose: 12.5 mg/kg/injection, schedule: Q01DX001 (sc)): 8 of 8
survivor count (dose: 12.5 mg/kg/injection, schedule: Q03HX008 (ip)): 7 of 8
survivor count (dose: 12.5 mg/kg/injection, schedule: Q03HX016 (ip)): 6 of 8
survivor count (dose: 12.5 mg/kg/injection, schedule: Q04DX003 (ip)): 8 of 8
survivor count (dose: 12.5 mg/kg/injection, schedule: Q08DX002 (ip)): 8 of 8
survivor count (dose: 20.0 mg/kg/injection, schedule: Q04DX003 (ip)): 8 of 8
survivor count (dose: 25.0 mg/kg/injection, schedule: Q01DX001 (ip)): 8 of 8
survivor count (dose: 25.0 mg/kg/injection, schedule: Q01DX001 (oral)): 8 of 8
survivor count (dose: 25.0 mg/kg/injection, schedule: Q01DX001 (sc)): 8 of 8
survivor count (dose: 25.0 mg/kg/injection, schedule: Q03HX008 (ip)): 5 of 8
survivor count (dose: 25.0 mg/kg/injection, schedule: Q04DX003 (ip)): 8 of 8
survivor count (dose: 25.0 mg/kg/injection, schedule: Q08DX002 (ip)): 8 of 8
survivor count (dose: 40.0 mg/kg/injection, schedule: Q04DX003 (ip)): 8 of 8
survivor count (dose: 50.0 mg/kg/injection, schedule: Q01DX001 (ip)): 8 of 8
survivor count (dose: 50.0 mg/kg/injection, schedule: Q01DX001 (oral)): 8 of 8
survivor count (dose: 50.0 mg/kg/injection, schedule: Q01DX001 (sc)): 8 of 8
survivor count (dose: 50.0 mg/kg/injection, schedule: Q04DX003 (ip)): 8 of 8
survivor count (dose: 50.0 mg/kg/injection, schedule: Q08DX002 (ip)): 8 of 8
survivor count (dose: 80.0 mg/kg/injection, schedule: Q04DX003 (ip)): 8 of 8
survivor count (dose: 100.0 mg/kg/injection, schedule: Q01DX001 (ip)): 8 of 8
survivor count (dose: 100.0 mg/kg/injection, schedule: Q01DX001 (oral)): 8 of 8
survivor count (dose: 100.0 mg/kg/injection, schedule: Q01DX001 (sc)): 8 of 8
survivor count (dose: 100.0 mg/kg/injection, schedule: Q08DX002 (ip)): 8 of 8
survivor count (dose: 200.0 mg/kg/injection, schedule: Q01DX001 (ip)): 8 of 8
survivor count (dose: 200.0 mg/kg/injection, schedule: Q01DX001 (oral)): 8 of 8
survivor count (dose: 200.0 mg/kg/injection, schedule: Q01DX001 (sc)): 8 of 8
survivor count (dose: 400.0 mg/kg/injection, schedule: Q01DX001 (oral)): 8 of 8
